# At least one read-out could not be matched to a standard name with certainty.
# Experiment: Effect of body weight on plasma tazarotenic acid Cmax and AUC in healthy human volunteers
# Assay type: in vivo
# Details: single daily dose of 6 mg tazarotene, p>0.05
smiles,measurement,value
CC1(C)CCSc2ccc(C#Cc3ccc(C(=O)O)cn3)cc21 [tazarotenic acid],effect of body weight on plasma tazarotenic acid Cmax and AUC,no effect of body weight
